In article PMC9368039 one finds binding data, which are given here for one substance.

Chains of the proteins cited; added tags and fusions are not shown.
UniProt P63158: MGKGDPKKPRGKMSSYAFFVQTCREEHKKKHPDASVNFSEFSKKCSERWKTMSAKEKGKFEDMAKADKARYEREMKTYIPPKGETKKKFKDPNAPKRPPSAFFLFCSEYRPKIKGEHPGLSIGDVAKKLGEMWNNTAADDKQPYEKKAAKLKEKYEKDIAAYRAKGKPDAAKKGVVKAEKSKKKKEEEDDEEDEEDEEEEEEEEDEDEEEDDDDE

This assay addresses T1, nucleotide-binding oligomerization domain-containing 2 (NOD2) (mouse (endogenous in BV2)) (UniProt Q8K3Z0).
T1 sequence: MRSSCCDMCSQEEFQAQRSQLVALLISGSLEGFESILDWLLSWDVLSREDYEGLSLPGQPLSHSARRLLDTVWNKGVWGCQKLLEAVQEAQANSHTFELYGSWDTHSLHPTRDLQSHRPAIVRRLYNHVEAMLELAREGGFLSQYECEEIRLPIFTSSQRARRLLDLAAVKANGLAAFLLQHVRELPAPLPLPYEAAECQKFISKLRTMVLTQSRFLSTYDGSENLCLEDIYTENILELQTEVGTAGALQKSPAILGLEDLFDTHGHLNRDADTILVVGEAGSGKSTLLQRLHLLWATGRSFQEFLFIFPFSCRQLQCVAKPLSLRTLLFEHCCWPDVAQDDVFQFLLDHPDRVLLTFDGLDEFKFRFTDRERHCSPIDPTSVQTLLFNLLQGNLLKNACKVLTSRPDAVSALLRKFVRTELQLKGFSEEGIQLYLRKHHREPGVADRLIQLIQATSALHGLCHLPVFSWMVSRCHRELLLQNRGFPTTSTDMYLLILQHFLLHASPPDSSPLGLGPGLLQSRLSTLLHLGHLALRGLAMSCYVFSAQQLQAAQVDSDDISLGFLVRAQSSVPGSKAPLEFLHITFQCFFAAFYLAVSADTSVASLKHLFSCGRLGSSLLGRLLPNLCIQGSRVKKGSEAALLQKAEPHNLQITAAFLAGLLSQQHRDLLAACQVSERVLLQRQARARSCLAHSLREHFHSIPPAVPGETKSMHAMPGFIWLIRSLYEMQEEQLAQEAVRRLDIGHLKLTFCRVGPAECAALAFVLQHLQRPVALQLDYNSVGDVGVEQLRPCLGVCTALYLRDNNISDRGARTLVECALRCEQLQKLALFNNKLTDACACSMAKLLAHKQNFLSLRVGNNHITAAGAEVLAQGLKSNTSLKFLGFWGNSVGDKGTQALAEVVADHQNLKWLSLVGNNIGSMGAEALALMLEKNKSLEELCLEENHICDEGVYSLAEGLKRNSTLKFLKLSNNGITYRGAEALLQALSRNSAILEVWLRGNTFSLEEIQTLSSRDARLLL
In words: co-IP; lysates (0.5-1 mg total protein) of BV2 cells treated with LPS (100 ng/mL) for 3, 6, 9, 12 and 18 h; immunoprecipitated with anti-HMGB1 or anti-NOD2 at 4 °C overnight on protein A-Sepharose beads; immunoblot with anti-HMGB1, anti-NOD2 or anti-ATG16. A general note: Immunoblotting shows a protein as a band on a membrane.

Results are given in words; binding and its absence hold for the method and conditions named. Binding seen in cells or lysates may run through a third protein. Some entries that bind do so weakly or less than the wild type.

With “high mobility group box 1 (HMGB1) (from UniProt P63158 1-215)”, the binding result is listed as “binds”.
